# Counter-ions that a name gives are not always drawn. The list shows a part of the results. Repeats are few or missing, and single values can be far off.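 Pooled together, 41 HAP1 clones carry intronic fluorescent tags on 61 cancer-associated proteins, and each clone is recognized by its imaging pattern. Measurements are benchmarked against DMSO-treated control wells. dBET6, a BRD4 degrader, served as the positive control.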
# Molecular target: BRD4 (intron 10 mScarlet tag, HAP1) (UniProt O60885)
# Assay: BRD4 median nuclear fluorescence intensity change vs DMSO (log2 fold change); higher = more BRD4 protein
# Conditions: 6 h
row,Structure (SMILES),BRD4 median nuclear fluorescence intensity change (log2)
1,C=CC[C@@H]1/C=C(\C)C[C@H](C)C[C@H](OC)[C@H]2O[C@@](O)(C(=O)C(=O)N3CCCC[C@H]3C(=O)O[C@H](/C(C)=C/[C@@H]3CC[C@@H](O)[C@H](OC)C3)[C@H](C)[C@@H](O)CC1=O)[C@H](C)C[C@@H]2OC [tacrolimus] (20 µM),-0.0181
2,C1CNCCN1 [piperazine hexahydrate] (10.008 µM),0.0872
3,CN(C)C/C=C/C(=O)Nc1cc2c(Nc3ccc(F)c(Cl)c3)ncnc2cc1O[C@H]1CCOC1 [afatinib] (10 µM),0.0558
4,O=C1CN(/N=C/c2ccc(-c3ccc([N+](=O)[O-])cc3)o2)C(=O)N1 [dantrolene] (10 µM),0.082
5,COc1c(OCCCN2CCOCC2)ccc2c1N=C(NC(=O)c1cnc(N)nc1)N1CCN=C21 [copanlisib] (10 µM),0.0971
6,COc1cc(C)c(/C=C/C(C)=C/C=C/C(C)=C/C(=O)O)c(C)c1C [acitretin] (9.99941 µM),-0.0624
7,CNC(=O)c1cc(Oc2ccc(NC(=O)Nc3ccc(Cl)c(C(F)(F)F)c3)cc2)ccn1 [sorafenib] (12.21 µM),-0.0403
8,CC[C@H]1OC(=O)[C@H](C)[C@@H](O[C@H]2C[C@@](C)(OC)[C@@H](O)[C@H](C)O2)[C@H](C)[C@@H](O[C@@H]2O[C@H](C)C[C@H](N(C)C)[C@H]2O)[C@](C)(O)C[C@@H](C)CN(C)[C@H](C)[C@@H](O)[C@]1(C)O [azithromycin] (10.0002 µM),-0.00176
9,CN(C)CCOc1ccc(/C(=C(/CCCl)c2ccccc2)c2ccccc2)cc1 [toremifene] (20 µM),0.0801
10,Nc1ccn([C@H]2CC[C@@H](CO)O2)c(=O)n1 [zalcitabine] (9.9996931 µM),-0.00781
11,CO[C@H]1C[C@@H]2CC[C@@H](C)[C@@](O)(O2)C(=O)C(=O)N2CCCC[C@H]2C(=O)O[C@H]([C@H](C)C[C@@H]2CC[C@@H](O)[C@H](OC)C2)CC(=O)[C@H](C)/C=C(\C)[C@@H](O)[C@@H](OC)C(=O)[C@H](C)C[C@H](C)/C=C/C=C/C=C/1C [rapamycin] (10 µM),0.101
12,Cc1ncc([N+](=O)[O-])n1CCO [metronidazole] (10 µM),-0.0336
13,NC(=O)N[C@@H](CCC(=O)O)C(=O)O [carglumic acid] (10 µM),-0.000272
14,CNC(=C[N+](=O)[O-])NCCSCc1csc(CN(C)C)n1 [nizatidine] (10 µM),0.133
15,O=C(c1cc(Cc2n[nH]c(=O)c3ccccc23)ccc1F)N1CCN(C(=O)C2CC2)CC1 [olaparib] (10 µM),0.0216
16,C[C@]12C=CC(=O)N[C@@H]1CC[C@@H]1[C@@H]2CC[C@]2(C)[C@@H](C(=O)Nc3cc(C(F)(F)F)ccc3C(F)(F)F)CC[C@@H]12 [dutasteride] (9.99927 µM),0.149
17,CC(C)C(=O)Nc1ccc([N+](=O)[O-])c(C(F)(F)F)c1 [flutamide] (20 µM),-0.11
18,CC1CNc2c(cccc2S(=O)(=O)N[C@@H](CCCNC(=N)N)C(=O)N2CC[C@@H](C)C[C@@H]2C(=O)O)C1 (some centres undefined) [argatroban] (10.0004 µM),0.0386
19,O=C1CCC(N2C(=O)c3ccccc3C2=O)C(=O)N1 (centres undefined) [thalidomide] (9.40275 µM),0.00478
20,CC(=O)NCCCS(=O)(=O)O [acamprosate] (22.0736 µM),0.0556

# Look-ups from the results shown:
# Entry for C1CNCCN1 [piperazine hexahydrate] (10.008 µM) under BRD4 median nuclear fluorescence intensity change (log2): 0.0872
# Entry for CC(=O)NCCCS(=O)(=O)O [acamprosate] (22.0736 µM) under BRD4 median nuclear fluorescence intensity change (log2): 0.0556

# The results go on.

row,Structure (SMILES),BRD4 median nuclear fluorescence intensity change (log2)
1,C[C@H](N)C(=O)O.N[C@@H](Cc1ccc(O)cc1)C(=O)O [glatiramer acetate] (10 µM),0.207
2,COc1cc2c(Oc3ccc4[nH]c(C)cc4c3F)ncnc2cc1OCCCN1CCCC1 [cediranib] (10 µM),0.102
3,O=C1[C@H](CC[C@H](O)c2ccc(F)cc2)[C@@H](c2ccc(O)cc2)N1c1ccc(F)cc1 [ezetimibe] (10.00060281 µM),0.105
4,COc1cc2ncnc(Nc3ccc(F)c(Cl)c3)c2cc1OCCCN1CCOCC1 [gefitinib] (20 µM),0.147
5,CCN(CC)Cc1cc(Nc2ccnc3cc(Cl)ccc23)ccc1O [amodiaquine] (10.0001 µM),0.0709
6,NC[C@H]1CC[C@H](C(=O)O)CC1 [tranexamic acid] (10 µM),0.07
7,COc1cc([C@@H]2c3cc4c(cc3[C@@H](O[C@@H]3O[C@@H]5CO[C@@H](C)O[C@H]5[C@H](O)[C@H]3O)[C@H]3COC(=O)[C@H]23)OCO4)cc(OC)c1O [etoposide] (20 µM),0.137
8,CCN(CC)C(=S)SSC(=S)N(CC)CC [disulfiram] (10.03611718 µM),0.0751
9,CC(C)NC[C@@H](C(=O)N1CCN(c2ncnc3c2[C@H](C)C[C@H]3O)CC1)c1ccc(Cl)cc1 [ipatasertib dihydrochloride] (20 µM),-0.15
10,Cn1nnc2c(C(N)=O)ncn2c1=O [temozolomide] (20 µM),-0.00164
11,O=C1OCCN1/N=C/c1ccc([N+](=O)[O-])o1 [furazolidone] (10 µM),0.0526
12,CCCc1nn(C)c2c(=O)[nH]c(-c3cc(S(=O)(=O)N4CCN(C)CC4)ccc3OCC)nc12 [sildenafil] (9.999439551 µM),0.00568
13,C[C@H]1[C@@H](O)O[C@@H]2O[C@@]3(C)CC[C@H]4[C@H](C)CC[C@@H]1[C@@]24OO3 [dihydroartemisinin] (10 µM),0.0171
14,CC(C(=O)O)c1cccc(Oc2ccccc2)c1 (centres undefined) [fenoprofen] (10 µM),0.0129
15,Cc1cn[nH]c1 [fomepizole] (10 µM),0.126
16,CC(C)(Oc1ccc(Cl)cc1)C(=O)O [clofibric acid] (10 µM),0.0686
17,COC(=O)[C@H](c1ccccc1Cl)N1CCc2sccc2C1 [clopidogrel] (9.99986 µM),0.0785
18,CC1OC2(CS1)CN1CCC2CC1 (centres undefined) [cevimeline] (11.8284 µM),-0.0173
19,C[C@H]1O[C@H](O[C@H]2[C@H](O)[C@@H](O)[C@@H](O[C@H]3[C@H](O)[C@@H](O)C(O)O[C@@H]3CO)O[C@@H]2CO)[C@H](O)[C@@H](O)[C@@H]1N[C@H]1C=C(CO)[C@@H](O)[C@H](O)[C@H]1O (some centres undefined) [acarbose] (10.0006 µM),-0.00345
